The data set deals with trypanosomes. The data set can be described thus: LC-MS measurement of accumulation into trypanosomes. To be noted: LC-MS measurements.

For the compound `Nc1nc2[nH]c(-c3ccccc3)c(-c3ccccc3)c2c(=O)[nH]1` [34a, 2-Amino-5,6-diphenyl-3,7-dihydro-4H-pyrrolo[2,3-d]pyrimidin-4-one], the accumulation into trypanosomes entry is recorded as “significant accumulation”.
For the compound `Nc1nc(N)c2c(-c3ccccc3)c(-c3ccccc3)[nH]c2n1` [35a, 5,6-Diphenyl-7H-pyrrolo[2,3-d]pyrimidine-2,4-diamine], the accumulation into trypanosomes entry is “significant accumulation”.
